Results as given in patent US20260167677A1, “ANTI-ADAM10 ANTIBODIES AND USES IN TREATMENT OF CANCER” (Memorial Sloan Kettering Cancer Center, priority 2022, published 2026).
These are yes or no findings as the source states them, for the method shown. Binding calls can cover weak binding; strength is not graded here.

Chains of the proteins cited; added tags and fusions are not shown. Lines headed by an entry give the natural chain unless they say otherwise; changes in a name come on top.
UniProt Q10741: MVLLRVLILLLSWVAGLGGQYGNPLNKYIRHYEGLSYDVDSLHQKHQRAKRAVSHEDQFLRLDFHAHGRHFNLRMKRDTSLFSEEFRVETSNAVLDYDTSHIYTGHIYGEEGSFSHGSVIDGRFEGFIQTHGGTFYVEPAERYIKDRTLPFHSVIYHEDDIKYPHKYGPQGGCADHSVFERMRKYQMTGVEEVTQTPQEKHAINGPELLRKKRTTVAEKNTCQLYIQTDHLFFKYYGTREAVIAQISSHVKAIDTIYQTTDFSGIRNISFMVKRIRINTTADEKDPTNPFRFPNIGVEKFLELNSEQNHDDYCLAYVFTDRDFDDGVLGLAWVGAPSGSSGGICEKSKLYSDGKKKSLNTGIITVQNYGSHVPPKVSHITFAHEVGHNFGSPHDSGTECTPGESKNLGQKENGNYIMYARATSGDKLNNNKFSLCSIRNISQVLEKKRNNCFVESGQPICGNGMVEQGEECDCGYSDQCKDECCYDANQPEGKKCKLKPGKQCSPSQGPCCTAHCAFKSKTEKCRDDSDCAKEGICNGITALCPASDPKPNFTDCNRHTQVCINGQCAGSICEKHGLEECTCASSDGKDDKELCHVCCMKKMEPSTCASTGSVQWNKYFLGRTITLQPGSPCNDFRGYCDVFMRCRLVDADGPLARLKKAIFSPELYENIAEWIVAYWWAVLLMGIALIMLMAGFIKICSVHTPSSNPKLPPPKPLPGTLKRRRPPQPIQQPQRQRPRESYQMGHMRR
UniProt O14672: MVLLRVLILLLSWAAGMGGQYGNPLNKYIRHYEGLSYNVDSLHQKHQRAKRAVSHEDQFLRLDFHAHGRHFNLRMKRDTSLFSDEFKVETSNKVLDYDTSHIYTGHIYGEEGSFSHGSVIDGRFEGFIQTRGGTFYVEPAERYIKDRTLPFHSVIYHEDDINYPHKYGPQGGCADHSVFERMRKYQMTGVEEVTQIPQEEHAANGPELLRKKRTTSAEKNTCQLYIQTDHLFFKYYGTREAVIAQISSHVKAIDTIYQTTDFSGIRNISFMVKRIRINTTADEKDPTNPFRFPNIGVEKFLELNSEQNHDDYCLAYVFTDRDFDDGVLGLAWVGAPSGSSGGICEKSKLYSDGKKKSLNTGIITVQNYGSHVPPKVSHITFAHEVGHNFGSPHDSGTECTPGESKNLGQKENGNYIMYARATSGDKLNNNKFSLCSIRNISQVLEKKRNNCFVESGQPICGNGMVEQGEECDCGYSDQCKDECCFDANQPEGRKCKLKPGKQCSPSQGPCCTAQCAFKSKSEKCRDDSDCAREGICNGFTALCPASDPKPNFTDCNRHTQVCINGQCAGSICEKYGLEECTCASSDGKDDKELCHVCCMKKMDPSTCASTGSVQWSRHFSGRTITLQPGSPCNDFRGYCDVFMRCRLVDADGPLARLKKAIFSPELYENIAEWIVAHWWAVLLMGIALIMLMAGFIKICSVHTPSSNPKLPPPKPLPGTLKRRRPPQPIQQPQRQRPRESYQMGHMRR

Tests used:
[1] = molecular target: bovine ADAM10 disintegrin+cysteine-rich domain construct (D+C, residues 455-646) (bovine) (UniProt Q10741); assay: ELISA, 1H5 IgG titrated on immobilised bovine ADAM10 D+C, absorbance 450 nm
[2] = molecular target: human ADAM10 D+C (455-650) (human) (UniProt O14672); assay: ELISA on immobilised antigen
[3] = molecular target: bovine ADAM10 disintegrin+cysteine-rich domain construct (D+C, residues 455-646) (bovine) (UniProt Q10741); assay: ELISA on immobilised antigen
[4] = molecular target: human ADAM10 D+C (455-650) (human) (UniProt O14672); assay: ELISA, 1H5 IgG titrated on immobilised human ADAM10 D+C, absorbance 450 nm
[5] = molecular target: bovine ADAM10 disintegrin+cysteine-rich domain construct (D+C, residues 455-646) (bovine) (UniProt Q10741); assay: pull-down with protein A Sepharose bead-bound IgG, SDS-PAGE

Measured: binding

B1: 1H5 IgG (fully human anti-ADAM10 monoclonal antibody) (antibody, V domains shown)
VH: QVQLVESGGGLVKPGGSLRLSCAASGFTFSDYYMSWIRQAPGKGLEWVSYISSSGSTIYYADSVKGRFTISRDNAKNSLYLQMNSLRAEDTAVYYCARDFYDSKIFDYWGQGTLVTVSS
VL: DIQMTQSPSSLSASVGDRVTITCRASQSISSYLNWYQQKPGKAPKLLIYAASSLQSGVPSRFSGSGSGTDFTLTISSLQPEDVGVYYCMEGLKTPFTFGPGTKLEIKR
binds: [1] | [2] | [3] | [4] | [5]
